Measured data: PubChem BioAssay AID1508588 (Peter MacCallum Cancer Centre, 2020)
Assay: 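Which gene losses make BRAF-mutant melanoma cells more responsive to vemurafenib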 (primary screen). System: human WM266.4 melanoma cells (BRAF V600 mutant). Reagents: siRNA pool against human genes, 40 nM. Timing: 96 h from transfection to read-out. Challenge: vemurafenib 300 nM (about IC25), added 48 h after transfection, for 48 h; comparison arm got DMSO vehicle only. Detection: 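Ratios to non-targeting siRNA for cell gain, counted as DAPI nuclei after minus before drug and averaged over two replicates, and for absorbance-read medium lactate per cell; both binned into fold-change classes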. Direction: cell gain with vemurafenib: higher = more cell gain than with non-targeting siRNA; lactate per cell with vemurafenib: higher = more lactate made per cell. Active means: 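a knock-down counts as enhancing when its fold-change classes with vehicle and with vemurafenib, taken together, show a stronger drug effect on cell gain or lactate per cell; exact class pairs not stated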. Meaning of the calls: active = enhances vemurafenib effect; inactive = no enhancement seen.
Here is one part, drawn at random, of about 18,000 reagents tested. 790 of all reagents (4.4%) count as active. 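Calls rest on a combination of fold-change classes in drug and vehicle arms, not all shown here.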 Unmarked entries are inactive. Reagent sequences are not shown.

target gene,cell gain with vemurafenib,lactate per cell with vemurafenib
SLC5A5 (GeneID 6528),0.57,0.94
REDIC1 (GeneID 283461),0.59,0.76
HPS3 (GeneID 84343),0.67,1.23
STX12 (GeneID 23673),0.28,0.55
INPPL1 (GeneID 3636),0.57,0.95
TMBIM1 (GeneID 64114),0.23,1.96
RIPK4 (GeneID 54101),0.8,0.52
TTC3 (GeneID 7267),0.67,1.17
TMEM95 (GeneID 339168),0.7,0.6
PARVA (GeneID 55742),0.41 (active),0.49
NDUFAF2 (GeneID 91942),0.78,0.63
STMN1 (GeneID 3925),1.17,0.98
ARL6 (GeneID 84100),0.89,0.52
HELLS (GeneID 3070),0.81,0.6
YWHAB (GeneID 7529),0.82,0.42
SPOCK1 (GeneID 6695),0.47,0.76
COL7A1 (GeneID 1294),0.27,1.06
BRINP2 (GeneID 57795),0.12,1.4
MYLK3 (GeneID 91807),0.66,1.29
ADM2 (GeneID 79924),0.82,0.9
ASB7 (GeneID 140460),0.37,1.08
COX7B2 (GeneID 170712),0.56,0.56
DPPA3 (GeneID 359787),0.83,0.24
NPFF (GeneID 8620),0.42 (active),0.6
YAP1 (GeneID 10413),0.76,0.55
ATP1B1 (GeneID 481),0.58,1.56
KLHL36 (GeneID 79786),0.74,0.94
ZNF639 (GeneID 51193),0.13 (active),0.54
MARCHF6 (GeneID 10299),1.17,0.65
KIF5B (GeneID 3799),0.74,0.76
OXNAD1 (GeneID 92106),1.35,0.94
MAGEB6 (GeneID 158809),0.41,1.52
FAM162A (GeneID 26355),0.97,0.45
RCL1 (GeneID 10171),0.32,1.14
PRSS27 (GeneID 83886),0.58,0.98
MAFK (GeneID 7975),1.03,0.93
NUDC (GeneID 10726),0.84,1.13
CACYBP (GeneID 27101),0.79,0.98
TNFSF9 (GeneID 8744),1.04,0.76
CHD9 (GeneID 80205),0.41,0.52
ZDHHC5 (GeneID 25921),0.84,0.96
SLC35E2A (GeneID 9906),-0.03,4.36
CDC42 (GeneID 998),0.3,0.86
TAF9B (GeneID 51616),0.43,0.64
LY6S-AS1 (GeneID 286122),-0.02,2.12
C6orf47 (GeneID 57827),0.58,1.57
ASF1B (GeneID 55723),0.41,1.27
ABHD10 (GeneID 55347),0.42,1.52
FUT3 (GeneID 2525),0.46,1.9
UGP2 (GeneID 7360),0.74,1.13
DKKL1 (GeneID 27120),0.67,1.4
FTL (GeneID 2512),1.01,0.82
C18orf54 (GeneID 162681),0.44,0.96
NHLRC1 (GeneID 378884),0.18,0.88
KRT24 (GeneID 192666),0.86,0.66
PRKCSH (GeneID 5589),0.25,1.21
PLEKHG4 (GeneID 25894),0.26,1.03

4 entries from above, set out differently:
target gene	cell gain with vemurafenib	lactate per cell with vemurafenib
TMBIM1 (GeneID 64114)	0.23	1.96
RIPK4 (GeneID 54101)	0.8	0.52
TTC3 (GeneID 7267)	0.67	1.17
TMEM95 (GeneID 339168)	0.7	0.6
